Assay results published in published antibiotic growth screens (doi:10.1016/j.cell.2020.01.021).
The full ranking holds about 2,300 compounds; the median of “relative growth” is about 1, and the lowest 2% start at about 0.046. Only a part is listed here, and it is no random draw.

What follows are molecules tested on E. coli BW25113 (assay: relative growth (fraction of control); higher = less inhibition). Conditions: 50 µM.

SMILES	relative growth
O=C1CC2OCC=C3CN4CCC56c7ccccc7N1C5C2C3CC46.O=S(=O)(O)O (centres undefined)	1.02
CCC(CO)NC(=O)C1C=C2c3cccc4c3c(cn4C)CC2N(C)C1.O=C(O)C=CC(=O)O (centres undefined)	0.905
CCC(COC(=O)c1cc(OC)c(OC)c(OC)c1)(c1ccccc1)N(C)C.O=C(O)C=CC(=O)O (centres undefined)	0.993
CNC(=O)Oc1ccc2c(c1)C1(C)CCN(C)C1N2C.O=C(O)c1ccccc1O (centres undefined)	1.14
CC(CO)NC(=O)C1C=C2c3cccc4[nH]cc(c34)CC2N(C)C1.O=C(O)C=CC(=O)O (centres undefined)	1.1
Br.CN1C2CC(OC(=O)C(CO)c3ccccc3)CC1C(O)C2 (racemic)	1.1
CN1CCC2(C)c3cc(O)ccc3N(C)C12.O=C(O)C=CC(=O)O (centres undefined)	0.961
CC1C=CC=CCCC=CC=CC=CC=CC(OC2OC(C)C(O)C(N)C2O)CC2OC(O)(CC(O)C(O)CCC(O)CC(O)CC(O)CC(=O)OC(C)C(C)C1O)CC(O)C2C(=O)O (centres undefined)	1.06
COc1ccc2c(c1OC)C(=O)OC2C1c2cc3c(cc2CCN1C)OCO3 (centres undefined)	1.09
CCN(C)C(=O)Oc1cccc(C(C)N(C)C)c1.O=C(O)C(O)C(O)C(=O)O (centres undefined)	0.922
CN1C2CCC1CC(OC(=O)C(CO)c1ccccc1)C2 (centres undefined)	1.1
COc1cc(C2c3cc4c(cc3C(O)C3COC(=O)C23)OCO4)cc(OC)c1OC (centres undefined)	0.871
CNCC(O)c1ccc(O)cc1.CNCC(O)c1ccc(O)cc1.O=C(O)C(O)C(O)C(=O)O (centres undefined)	1.06
O=C(O)C=CC(=O)O.c1ccc2nc(N3CCNCC3)ccc2c1	0.991

Taken from above (two entries):
SMILES	relative growth
CNC(=O)Oc1ccc2c(c1)C1(C)CCN(C)C1N2C.O=C(O)c1ccccc1O (centres undefined)	1.14
CC(CO)NC(=O)C1C=C2c3cccc4[nH]cc(c34)CC2N(C)C1.O=C(O)C=CC(=O)O (centres undefined)	1.1
